Laboratory results as given in PubChem BioAssay AID504444 (National Center for Advancing Translational Sciences (NCATS), 2011).
The campaign covered roughly 360,000 compounds. About 7,500 (2.1%) were called active. Inconclusive means that the source gave no clear call. Such entries were picked first, then a sample of the others. Calls follow the shape of the dose curve; as a rule, active = well fitted inhibition curve with a large enough effect; inconclusive = small, poorly fitted or top-dose-only effect, or effect the other way; inactive = flat fitted curve, though single readings scatter. Potencies of inconclusive entries are doubtful fits and often do not repeat.

Test: Nrf2 qHTS screen for inhibitors; also: nearly all actives have a fitted effect of over 60% in size
Details: A549 ARE-Fluc reporter, luciferase luminescence, 18-24 h; series mostly up to 46 µM
Method in brief: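 In this cell-based qHTS, ARE-driven firefly luciferase in A549 cells reports Nrf2 activity; the luminescent signal after BugLite lysis is the measured value, with a prior CellTiter-Fluor read for cell health.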
Potency is read from the fitted curve at half-maximal effect.

Structure (SMILES) | Potency
COc1ccc(CN2CCN(C(=O)CC(C)C)CC2)c(OC)c1OC | inconclusive: 29.1 µM [falling, partial curve, poor fit]
COc1ccc2oc(=N)c(C(=O)Nc3ccccc3Cl)cc2c1 | inconclusive: 23.1 µM [activator, single point]
CCN(Cc1ccccc1)C(=O)COC(=O)c1c(C)nsc1NC | inconclusive: 8.2 µM [falling, partial curve, poor fit]
CCOc1ncccc1C(=O)Nc1ccc(S(=O)(=O)NC2=NCCCCC2)cc1 | inconclusive: 23.1 µM [falling, partial curve]
CCOc1ccc(N(CC(=O)NCCC2=CCCCC2)S(=O)(=O)c2ccccc2)cc1 | inactive
O=C1c2ccccc2C(Nc2ccc(S(=O)(=O)N3CCCCC3)cc2)N1c1ccccn1 (stereo not given) | inconclusive: 25.9 µM [falling, partial curve, poor fit]
CCOc1cc(C(=O)N2CCN(c3ccccn3)CC2)cc(OCC)c1OCC | inactive
CN(C)c1cc(N/N=C/c2ccc(Cl)cc2)nc(N(C)C)n1 | inconclusive: 29.1 µM [falling, single point]
O=C(OCCN1C(=O)c2cccc3c(N4CCOCC4)ccc(c23)C1=O)c1ccccc1Cl | inconclusive: 23.1 µM [falling, single point]
Cc1ccc(NC(=O)C2CCN(S(=O)(=O)c3ccc(C(C)(C)C)cc3)CC2)cc1S(=O)(=O)N1CCOCC1 | inconclusive: 18.4 µM [falling, single point]
CCOC(=O)c1cc(C)n(CC2CCC(C(=O)Nc3ccc(OC)c(OC)c3)CC2)c1C (stereo not given) | inconclusive: 29.1 µM [activator, single point]
COCCN1CCC(CNCc2cn[nH]c2-c2ccc(C)c(C)c2)C1 (stereo not given) | inconclusive: 16.4 µM [activator, partial curve]
O=C(Nc1ccc(-c2csc(-c3ccccc3)n2)cc1)c1ccccc1 | inconclusive: 23.1 µM [falling, single point]
COc1cccc(CC(NC(C)=O)C(=O)NC2CCN(S(=O)(=O)c3ccc4ccccc4c3)CC2)c1 (stereo not given) | inconclusive: 32.6 µM [falling, single point]
Cn1cc(CN2CCCC(C(=O)Nc3cccc(-n4cccn4)c3)C2)cn1 (stereo not given) | inactive
Cc1nc(-c2noc(-c3ccccc3Cl)n2)c(C(F)(F)F)o1 | inconclusive: 9.2 µM [activator, partial curve]
O=C(CNc1ccc2ccccc2c1)N/N=C/C=C/c1cccc([N+](=O)[O-])c1 | inconclusive: 29.1 µM [falling, single point]
C/C(=N\NC(=O)CCn1nnc2ccccc21)c1ccco1 | inconclusive: 2.91 µM [activator, partial curve]
CCN(Cc1ccccc1)C(=O)C1CCC(CNS(=O)(=O)c2ccc3c(c2)CCCC(=O)N3)CC1 (stereo not given) | inconclusive: 16.4 µM [falling, partial curve]
Cc1ccc(/C=N/Nc2ccc(C(=O)O)cc2)o1 | inconclusive: 25.9 µM [activator, single point]

In a second layout: 2 of the compounds above.
Structure (SMILES)	Potency
COCCN1CCC(CNCc2cn[nH]c2-c2ccc(C)c(C)c2)C1 (stereo not given)	inconclusive: 16.4 µM [activator, partial curve]
O=C(Nc1ccc(-c2csc(-c3ccccc3)n2)cc1)c1ccccc1	inconclusive: 23.1 µM [falling, single point]

Remaining list, next part:

Structure (SMILES) | Potency
Cc1ccc(-n2c(=O)c3c(C)c(C)sc3n(Cc3cc(=O)n4ccccc4n3)c2=O)cc1C | inconclusive: 10.3 µM [falling, partial curve]
COc1ccc(Oc2coc3cc(OC(=O)/C=C/c4ccccc4)ccc3c2=O)cc1 | inconclusive: 14.6 µM [falling, partial curve, poor fit]
CCOC(=O)c1c(C)[nH]c(C)c1C(=O)COC(=O)/C=C/c1cccc(F)c1 | inactive
Cc1ccc(S(=O)(=O)c2nnn3c2nc(N2CCCC(C)C2)c2cc(Cl)ccc23)cc1C (stereo not given) | inactive
Cc1ccc(NC(=O)Cn2c(=O)n(-c3ccccc3)c(=O)c3ccc(C(=O)NCc4ccc5c(c4)OCO5)cc32)cc1 | inconclusive: 18.4 µM [falling, single point]
O=C(Nc1ccccc1C(F)(F)F)c1noc2c1CCCC2 | inconclusive: 20.6 µM [activator, partial curve]
CCOc1cccc(-c2nnc3sc(-c4cccs4)nn23)c1 | inconclusive: 0.259 µM [falling, full curve, poor fit]
CCN1CCC(N(Cc2ccc3c(c2)OCO3)C(=O)Nc2cccc(C)c2C)CC1 | inconclusive: 29.1 µM [activator, single point]
Clc1ccccc1/C=C/c1nc(-c2cccnc2)no1 | inconclusive: 8.2 µM [activator, partial curve]
COC(=O)c1cc(C(=O)CC(C)C)c[nH]1 | inconclusive: 0.58 µM [activator, full curve, poor fit]
Cc1ccc2nc(-c3cccc(NC(=O)CSc4ccc(Cl)cc4)c3)oc2c1 | inconclusive: 1.46 µM [activator, full curve]
CCCNC(=O)c1ccc(Cn2cc(-c3ccc(OC)cc3)nc2C(C)N)cc1 (stereo not given) | inconclusive: 18.4 µM [activator, partial curve, poor fit]
C#CCOCCOCCOCCNc1nc(N2CCN(C(=O)CCCCCCCCCCNC(=O)Cn3cc(CCCCCN)nn3)CC2)nc(N2CCN(C(=O)CCCCCCCCCCNC(=O)[C@H](CO)n3cc(CCCSC)nn3)CC2)n1 | inconclusive: 23.1 µM [falling, partial curve]
COc1cccc(C(=O)C2CCCN(C(=O)c3cccc(C#CC(C)(C)O)c3)C2)c1 (stereo not given) | inconclusive: 23.1 µM [falling, partial curve, poor fit]
CC(=O)N(C)c1ccc(NC(=S)NC(=O)/C=C/c2ccco2)cc1 | inactive
c1ccc2c(SCc3cn4cccnc4n3)ncnc2c1 | inconclusive: 13 µM [falling, partial curve]
CN(C(=O)/C=C/c1ccc([N+](=O)[O-])s1)c1ccccc1 | inconclusive: 29.1 µM [falling, single point]
CCCN1CNc2c(c(=O)[nH]c(=S)n2CCc2c(Cl)cccc2Cl)C1 | inactive
COc1ccc(C(=O)Oc2cc(C(=S)N3CCOCC3)ccc2OC)cc1 | inactive
CC(=O)NN1C(=O)c2ccccc2NC1c1ccc([N+](=O)[O-])o1 (stereo not given) | inconclusive: 29.1 µM [falling, single point]
